The target in this experiment is wild-type FOXN1 (human), FLAG-tagged (human) (UniProt O15353). The experiment can be described thus: co-IP.

No constants are given. Whether binding was seen depends on the method and setting. In cells and extracts the contact can be indirect. Some results given as binding are weak or reduced against the parent protein; the word gives no strength. Sequences can lack the tags named with a protein.

B1: wild-type FOXN1 (human), FLAG-tagged (protein, UniProt O15353 1-648)
chain: MVSLPPPQSDVTLPGPTRLEGERQGDLMQAPGLPGSPAPQSKHAGFSCSSFVSDGPPERTPSLPPHSPRIASPGPEQVQGHCPAGPGPGPFRLSPSDKYPGFGFEEAAASSPGRFLKGSHAPFHPYKRPFHEDVFPEAETTLALKGHSFKTPGPLEAFEEIPVDVAEAEAFLPGFSAEAWCNGLPYPSQEHGPQVLGSEVKVKPPVLESGAGMFCYQPPLQHMYCSSQPPFHQYSPGGGSYPIPYLGSSHYQYQRMAPQASTDGHQPLFPKPIYSYSILIFMALKNSKTGSLPVSEIYNFMTEHFPYFKTAPDGWKNSVRHNLSLNKCFEKVENKSGSSSRKGCLWALNPAKIDKMQEELQKWKRKDPIAVRKSMAKPEELDSLIGDKREKLGSPLLGCPPPGLSGSGPIRPLAPPAGLSPPLHSLHPAPGPIPGKNPLQDLLMGHTPSCYGQTYLHLSPGLAPPGPPQPLFPQPDGHLELRAQPGTPQDSPLPAHTPPSHSAKLLAEPSPARTMHDTLLPDGDLGTDLDAINPSLTDFDFQGNLWEQLKDDSLALDPLVLVTSSPTSSSMPPPQPPPHCFPPGPCLTETGSGAGDLAAPGSGGSGALGDLHLTTLYSAFMELEPTPPTAPAGPSVYLSPSSKPVALA
For the molecule B1, the binding entry is “binds”.

The values are drawn from paper doi:10.1101/2021.03.28.437237.
